Measured values taken from PubChem BioAssay AID248 (DTP/NCI, 2004).
The list shows only some results of the screen, not a fair sample: it is rich in T/C values a quarter to a half above the control, in often repeated tests (any T/C) and in doses without a T/C. Other doses and runs of a compound stand elsewhere. T/C gives the treated animals as a percentage of the vehicle group. Some doses have a count of surviving animals in place of a T/C: the source holds a T/C of zero for them, seemingly a mark for toxic or unscored doses. Some survivor counts are full or nearly so, which does not show that the dose was tolerated: survival well below the control is almost never listed, so the zero probably covers shortened survival too. Counts of survivors are from the toxicity check (mostly the fifth day) where no day follows; animals may have died later. Schedules are NCI's codes, read here as Q, the interval in days (D) or hours (H), X, the number of doses. Some entries were tested several times; their values stand side by side, smallest first. Some schedules carry Z or #; the key to these is not given. Where survival is the endpoint, this PubChem deposit counts one and a half times the control or more as active, and values a quarter to a half above the control carry no call in these data; other NCI protocols may use other cut-offs. Some T/C values are followed by the survivors on the day toxicity was checked, most often the fifth; without a count, all were alive then.

System: L1210 leukemia ip in BDF1 mice, survival T/C
Assay: NCI In Vivo Anticancer Drug Screen. Data for tumor model L1210 Leukemia (intraperitoneal) in B6D2F1 (BDF1) mice
Conditions: T/C endpoint: mean survival time, higher T/C = longer survival
[1] = dose: 100.0 mg/kg/injection, schedule: Q01DX009 (ip), vehicle: saline
[2] = dose: 200.0 mg/kg/injection, schedule: Q01DX001 (ip), vehicle: saline
[3] = dose: 400.0 mg/kg/injection, schedule: Q01DX001 (ip), vehicle: saline
[4] = dose: 200.0 mg/kg/injection, schedule: Q01DX009 (ip), vehicle: saline with Tween-80
[5] = dose: 400.0 mg/kg/injection, schedule: Q01DX009 (ip), vehicle: saline with Tween-80
[6] = dose: 80.0 mg/kg/injection, schedule: Q01DX001 (ip), vehicle: saline
[7] = dose: 400.0 mg/kg/injection, schedule: Q04DX003 (ip), vehicle: Klucel (hydroxypropylcellulose) (HPC)
[8] = dose: 400.0 mg/kg/injection, schedule: Q01DX009 (ip), vehicle: saline
[9] = dose: 300.0 mg/kg/injection, schedule: Q01DX001 (ip), vehicle: saline
[10] = dose: 400.0 mg/kg/injection, schedule: Q01DX001 (ip), vehicle: Klucel (hydroxypropylcellulose) (HPC)
[11] = dose: 100.0 mg/kg/injection, schedule: Q01DX001 (ip), vehicle: saline
[12] = dose: 100.0 mg/kg/injection, schedule: Q04DX002 (ip), vehicle: Klucel (hydroxypropylcellulose) (HPC)
[13] = dose: 200.0 mg/kg/injection, schedule: Q04DX002 (ip), vehicle: Klucel (hydroxypropylcellulose) (HPC)
[14] = dose: 400.0 mg/kg/injection, schedule: Q04DX002 (ip), vehicle: Klucel (hydroxypropylcellulose) (HPC)
[15] = dose: 400.0 mg/kg/injection, schedule: Q01DX009 (ip), vehicle: Klucel (hydroxypropylcellulose) (HPC)

For `COc1cc(C=Nc2cccc(Cl)c2)ccc1N(CCCl)CCCl`, the survivor count (dose: 50.0 mg/kg/injection, schedule: Q01DX015 (ip), vehicle: carboxymethylcellulose (CMC)) was 4 of 6, the T/C (dose: 50.0 mg/kg/injection, schedule: Q01DX Z (ip), vehicle: carboxymethylcellulose (CMC)) was 133 % of control [4 of 6 alive] and the survivor count (dose: 75.0 mg/kg/injection, schedule: Q01DX015 (ip), vehicle: carboxymethylcellulose (CMC)) was 2 of 6. The survivor count (dose: 100.0 mg/kg/injection, schedule: Q01DX015 (ip), vehicle: carboxymethylcellulose (CMC)) was 1 of 6 and the survivor count (dose: 100.0 mg/kg/injection, schedule: Q01DX Z (ip), vehicle: carboxymethylcellulose (CMC)) was 3 of 6.
With `COC(=O)c1cn[nH]c1N1CC[N+](CCCl)=N1` the survivor count [1] was 2 of 6, the survivor count [2] was 2 of 6 and the survivor count [3] was 2 of 6.
`Cc1ccc(O)c(CCCO)c1` was tested, and the survivor count [3] was 0 of 4.
In the case of `Cc1ccc(C)c2c1[nH]c1c(C)c3ccncc3c(C)c12`, the survivor count (dose: 200.0 mg/kg/injection, schedule: Q01DX Z (ip), vehicle: saline) is reported as 1 of 6 and the survivor count (dose: 400.0 mg/kg/injection, schedule: Q01DX Z (ip), vehicle: saline) is reported as 0 of 6.
`O=C(CC(c1ccccc1)c1c(O)c2ccccc2oc1=O)c1ccccc1` (configuration not stated) was tested, and the survivor count (dose: 6.25 mg/kg/injection, schedule: Q01DX009 (ip), vehicle: saline with Tween-80) was 5 of 6, the survivor count (dose: 12.5 mg/kg/injection, schedule: Q01DX009 (ip), vehicle: saline with Tween-80) was 5 of 6 and the survivor count (dose: 25.0 mg/kg/injection, schedule: Q01DX009 (ip), vehicle: saline with Tween-80) was 1 of 6. The survivor count (dose: 50.0 mg/kg/injection, schedule: Q01DX009 (ip), vehicle: saline with Tween-80) was 3 of 6, the survivor count (dose: 100.0 mg/kg/injection, schedule: Q01DX009 (ip), vehicle: saline with Tween-80) was 0 of 6 and the survivor count [4] was 1 of 6. The survivor count [5] was 4 of 6.
With `NC(=O)OCCc1c2ccccc2nc2ccccc12` the survivor count (dose: 100.0 mg/kg/injection, schedule: Q04DX002 (ip), vehicle: other) was 3 of 3 and the survivor count (dose: 400.0 mg/kg/injection, schedule: Q04DX002 (ip), vehicle: other) was 3 of 3.
For `Cc1ccc(S(=O)(=O)Nc2ccc(-c3ccc(NS(=O)(=O)c4ccc(C)cc4)cc3)cc2)cc1`, the survivor count (dose: 25.0 mg/kg/injection, schedule: Q04DX002 (ip), vehicle: saline with Tween-80) was 3 of 3 and the survivor count (dose: 200.0 mg/kg/injection, schedule: Q04DX002 (ip), vehicle: saline with Tween-80) was 3 of 3.
With `N#CCC(C#N)C1C=CCC1` (configuration not stated) the survivor count (dose: 20.0 mg/kg/injection, schedule: Q01DX001 (ip), vehicle: saline) was 2 of 6, the survivor count (dose: 25.0 mg/kg/injection, schedule: Q04DX003 (ip), vehicle: saline with Tween-80) was 0 of 6 and the survivor count (dose: 40.0 mg/kg/injection, schedule: Q01DX001 (ip), vehicle: saline) was 0 of 6. For the same compound, the survivor count (dose: 50.0 mg/kg/injection, schedule: Q04DX003 (ip), vehicle: saline with Tween-80) was 0 of 6 and the survivor count [6] was 0 of 6.
For `CCN1C(=O)CC(=O)N(CC)C1=S`, the survivor count [7] was 2 of 6.
`CC(=O)c1cc2cc(Cl)cc(Cl)c2oc1=O` was tested, and the survivor count [5] was 2 of 3.
For `O=C(O)c1ccc([N+](=O)[O-])cc1C(=O)O`, the survivor count [8] was 0 of 6 and the survivor count [7] was 3 of 6.
For `CCC(=O)C1(c2cccc(O)c2)CCN(C)CC1`, the survivor count [9] was 0 of 6.
With `N/N=C1/CCc2ccccc21` the survivor count [10] was 0 of 6.
For `CC[N+](C)(CC)CCNC(c1ccccc1)C(Cl)(Cl)Cl` (configuration not stated), the survivor count [2] was 0 of 4 and the survivor count [3] was 0 of 4.
`c1ccc2c(c1)[nH]c1c2cc[n+]2cc3c(cc12)CCCC3` was tested, and the survivor count (dose: 75.0 mg/kg/injection, schedule: Q01DX001 (ip), vehicle: saline) was 0 of 6, the survivor count (dose: 150.0 mg/kg/injection, schedule: Q01DX001 (ip), vehicle: saline) was 0 of 6 and the survivor count [9] was 0 of 6.
With `CC(=O)Nc1ncccc1C` the survivor count [6] was 0 of 6, the survivor count [11] was 0 of 6 and the survivor count [2] was 0 of 6. The survivor count [3] was 0 of 6.
In the case of `COc1c2c([n+](C)c3c(OC)cccc13)OC(C(C)C)C2` (configuration not stated), the survivor count (dose: 2.0 mg/kg/injection, schedule: Q01DX009 (ip), vehicle: acetone) is reported as 6 of 6, the survivor count (dose: 3.0 mg/kg/injection, schedule: Q01DX009 (ip), vehicle: saline) is reported as 2 of 6 and the survivor count (dose: 4.0 mg/kg/injection, schedule: Q04DX003 (ip), vehicle: Klucel (hydroxypropylcellulose) (HPC)) is reported as 4 of 6. For the same compound, the survivor count (dose: 4.0 mg/kg/injection, schedule: Q04DX003 (ip), vehicle: acetone) was 0 of 6, the survivor count (dose: 5.94 mg/kg/injection, schedule: Q01DX001 (ip), vehicle: saline) was 0 of 6 and the survivor count (dose: 8.0 mg/kg/injection, schedule: Q04DX003 (ip), vehicle: Klucel (hydroxypropylcellulose) (HPC)) was 0 of 6. The survivor count (dose: 9.0 mg/kg/injection, schedule: Q01DX001 (ip), vehicle: saline) was 0 of 6 and the survivor count (dose: 13.5 mg/kg/injection, schedule: Q01DX001 (ip), vehicle: saline) was 0 of 6.
`O=C(O)c1cc(S(=O)(=O)F)cc(S(=O)(=O)F)c1` was tested, and the survivor count [4] was 0 of 6 and the survivor count [5] was 0 of 6.
In the case of `CCC1=CC2CC3(C(=O)OC)c4[nH]c5ccccc5c4CC[N+](Cc4ccccc4)(C2)C13` (configuration not stated), the survivor count [2] is reported as 3 of 6 and the survivor count [3] is reported as 1 of 6.
In the case of `NC(CS(=O)(=O)O)=NCC12CC3CC(CC(C3)C1)C2`, the survivor count [12] is reported as 0 of 3, the survivor count [13] is reported as 0 of 3 and the survivor count [14] is reported as 0 of 3.
For `N#CCCCC[P+](c1ccccc1)(c1ccccc1)c1ccccc1`, the survivor count [1] was 0 of 6 and 1 of 6, the survivor count (dose: 200.0 mg/kg/injection, schedule: Q01DX009 (ip), vehicle: saline) was 0 of 6 and the survivor count [8] was 0 of 6.
`CC1(C)N=C(N)N=C(N)N1c1cccc(CCCCC(=O)CCl)c1` was tested, and the survivor count (dose: 100.0 mg/kg/injection, schedule: Q04DX003 (ip), vehicle: saline) was 0 of 6, the survivor count (dose: 200.0 mg/kg/injection, schedule: Q04DX003 (ip), vehicle: saline) was 0 of 6 and the survivor count (dose: 400.0 mg/kg/injection, schedule: Q04DX003 (ip), vehicle: saline) was 0 of 6.
For `CC(=O)N(N=Nc1ccccc1)c1cccc2ccccc12`, the survivor count [15] was 6 of 6.
For `Cc1cc(N(CCCl)CCCl)ccc1C=Nc1ccccc1-n1ccnc1C`, the survivor count [12] was 0 of 3, the survivor count [13] was 0 of 3 and the survivor count [14] was 0 of 3.
`NC1=NCN(c2ccc(CCCCc3ccccc3)cc2)C(N)=N1` was tested, and the survivor count (dose: 100.0 mg/kg/injection, schedule: Q01DX001 (ip), vehicle: Klucel (hydroxypropylcellulose) (HPC)) was 2 of 6, the survivor count (dose: 200.0 mg/kg/injection, schedule: Q01DX001 (ip), vehicle: Klucel (hydroxypropylcellulose) (HPC)) was 0 of 6 and the survivor count [10] was 0 of 6.
`C/C(=C1/SC(=S)NC1=O)c1ccccc1O` was tested, and the survivor count [3] was 2 of 4.
In the case of `CCCCC1CN2CCc3cc(OC)c(OC)cc3C2CC1=O` (configuration not stated), the survivor count [15] is reported as 0 of 6.
`COc1ccccc1C[N+](C)(C)C` was tested, and the survivor count (dose: 80.0 mg/kg/injection, schedule: Q01DX009 (ip), vehicle: saline) was 3 of 6, the survivor count [11] was 1 of 6 and the survivor count [2] was 0 of 6. The survivor count [3] was 0 of 6.
In the case of `CCc1nc(NN)nc(CC)c1-c1ccccc1O`, the survivor count [14] is reported as 1 of 3.
